# Library screen at single concentrations

By UniProt entry, the sequences of proteins in these tests, tags left out.
UniProt P9WNZ1, whole entry: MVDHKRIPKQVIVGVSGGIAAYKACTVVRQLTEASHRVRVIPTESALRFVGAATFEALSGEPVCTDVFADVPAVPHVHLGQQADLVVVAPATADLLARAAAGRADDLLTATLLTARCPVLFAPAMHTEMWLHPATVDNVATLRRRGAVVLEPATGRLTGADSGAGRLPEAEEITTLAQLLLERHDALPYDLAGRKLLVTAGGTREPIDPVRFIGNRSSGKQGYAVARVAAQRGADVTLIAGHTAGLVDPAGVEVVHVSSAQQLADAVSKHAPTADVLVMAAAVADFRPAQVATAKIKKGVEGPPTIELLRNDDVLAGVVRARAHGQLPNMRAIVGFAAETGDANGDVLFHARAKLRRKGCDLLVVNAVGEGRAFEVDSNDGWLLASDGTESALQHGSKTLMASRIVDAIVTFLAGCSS

The values are deposited in ChEMBL (CHEMBL3988442, “University of Dundee, Small-Polar-MMV Screening Library” (2021)).

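Coenzyme A biosynthesis protein CoaBC, Mycobacterium tuberculosis (UniProt P9WNZ1). Enzyme assay of CoaBC with a phosphate dye (Biomol Green) read at 650 nm. Compounds at 30 µM. Direction is inferred from only a few compounds that gave an IC50; most scored high, so higher reads as stronger inhibition. Most strong results did not repeat in a second test. Of about 67,000 compounds tested this way, about 40 (0.06%) reached 50% or more in at least one test.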

Results are given as percent effect. The record does not define 0% and 100%; most values in the screen are far below 50% and negative numbers occur (in some assays of this library far below -100). Compounds were drawn at random from those tested, without regard to their results. Two or more numbers in one place are separate tests of the same structure; such repeats can differ widely.

SMILES,Percent Effect
CN(Cc1ccncc1)Cc1cnn(-c2ccc(F)cc2)c1,-3.617
O=S(=O)(CCSc1nccn1C1CC1)c1ccccc1,0.6274
CN(C)c1ccc(C(=O)N2CCN(CC(C)(C)O)CC2)nn1,10.91
CC(O)CN1CCC(CNCc2ccc(S(C)(=O)=O)cc2)CC1 (stereo not drawn),11.73
CCCNC(=O)CCC(=O)Nc1ccc(-n2cncn2)c(F)c1,-4.255
CC(C)n1nccc1NC(=O)NCCc1nc2ccc(F)cc2n1C,3.686
CC1=Nc2c(c(=O)[nH]n2C2CCCCC2)C(c2cccnc2)S1 (stereo not drawn),0.3632
CC(C)CC(NC(=O)CN(C)c1cnccn1)c1cccs1 (stereo not drawn),10.43
COc1cccc(-c2ccnc(C3CCNCC3)c2)c1,-3.163
CNC(=O)C1(c2cnccn2)CCCN1C(=O)c1ccc(F)cc1 (stereo not drawn),2.696
Cc1nc(C(=O)N2C[C@@H]3CN(S(C)(=O)=O)CCO[C@@H]3C2)cs1,0.6342
CC(SCCC(=O)NC(N)=O)c1ccccc1F (stereo not drawn),4.065
O=c1c(-c2ccnc(N3CCCC[C@@H]3CO)n2)cnc2sccn12,-2.289
CCCc1cc(C(=O)N[C@@H]2CCC[C@@H](N3CCCC3)[C@@H]2O)no1,-2.822
Cc1cc(C)n(CC2CN(CC(=O)NC3CCCCC3)CCO2)n1 (stereo not drawn),4.774
CC(C)c1ccc(N2CCc3onc(-c4ccc(F)c(F)c4)c3C2)nn1,6.335
CCCn1ncnc1C(C)NC(=O)C1CCN(C(C)C)CC1 (stereo not drawn),-4.206
O=C1CCC2(CCNCC2)CN1Cc1nnc2ccccn12,4.151
c1ccc(-c2nc(CN3CCCC3Cn3cncn3)co2)cc1 (stereo not drawn),29.09 & 7.732
COc1c(CNCc2ccc(N3CCCC3)nc2)c(C(C)C)nn1C,4.183
c1cc(CN2CCO[C@H]3[C@H](OCCN4CCCC4)CC[C@@H]32)ccn1,2.836
CN1CCC(NC(=O)CC2CN(Cc3ccccc3)CCO2)CC1 (stereo not drawn),4.822
CN(C(=O)Cn1nc(-c2ccccc2F)ccc1=O)C1CCS(=O)(=O)C1 (stereo not drawn),4.545
O=C([C@H]1CN(CCc2ccccc2)C[C@H]2OCC[C@@H]12)N1CCCO1,3.426
Cc1nnc(NC(=O)CCc2c(C)nn3cnnc3c2C)s1,-10.14
CCn1c(SCC(=O)N2CCCC2)nc2cc(C)[nH]c2c1=O,2.278
Cc1cc(NC(=O)N2CCC[C@@H]2CO)nn1-c1ccccc1Cl,0.1229
CCN(CC(=O)Nc1cc(Cl)ccc1C)C(=O)c1ccc(=O)[nH]n1,-3.505
CCC(O)CN1CCN(C(=O)c2ccc3c(c2)COC3)CC1 (stereo not drawn),2.887
CCOCCN1CCN(Cc2nnc(C3CC3)o2)CC1,1.923
CC(=O)N1CCC2(C1)C(=O)N(CC1CC1)c1ccccc12 (stereo not drawn),2.445
Cn1ccc2c(-c3ccc(NCCO)nn3)ccnc21,-10.08
COc1cc(N2CC[C@@H]3O[C@@H](C(=O)NC(C)C)C[C@@H]32)ncn1,-2.343
Cc1csc(CN(C)C(=O)Nc2cc(F)cc(N3CCCC3)c2)n1,13.27
Cn1nnc2c1CCN(CC1CC1)C2COCc1ccccc1 (stereo not drawn),8.29
Cc1ccc(S(=O)(=O)NCc2cccc(C(=O)N3CCCC3)c2)cc1F,-0.5362
Cc1ccc(C#N)c(N2CCC3(CCCN(C4CCOCC4)C3=O)C2)n1 (stereo not drawn),9.208
O=C(O)CN1CCC(c2ccccc2)CC1,-7.171
Cc1csc(CNC(=O)Nc2cc(C(F)(F)F)c[nH]c2=O)n1,-6.751
Cc1ccc(-c2nc(C(=O)N(C)CC(=O)N3CCCC3)cs2)c(C)c1,2.088
CC(C)c1noc([C@@H]2Cc3[nH]cnc3CN2C(=O)Nc2ccccc2)n1,3.386
CCC1CCCN(S(=O)(=O)c2cnc3onc(C)c3c2)C1 (stereo not drawn),3.302
COCCN1C(=O)CC[C@]12CC[C@@H](NC(=O)c1cc(C)on1)CC2,-6.361
O=C(c1cnccn1)N1CCCC2(CCN(Cc3ccc(F)cc3)C2)C1 (stereo not drawn),-5.447
CC(C)C(C(=O)NCC1CC1)n1cnc2cc(F)c(F)cc21 (stereo not drawn),3.586
Cn1cc(S(=O)(=O)NCCc2nnc3ccccn23)cn1,1.789
CCS(=O)(=O)N1CCN(C(C)c2ccccc2OC)CC1 (stereo not drawn),10.92
CCOc1c(F)cccc1C(=O)N(C)CCc1ccccn1,-11.98
COc1cccc2[nH]cc(CCNC(=O)N3CCCC3CO)c12 (stereo not drawn),0.9724
CC(C)C[C@H](N)c1nnc(SCC(N)=O)o1,1.841
Cn1cc(-c2nnn3c2COC(CNCc2nccs2)C3)cn1 (stereo not drawn),-0.1287
CC(C)c1ccc(OCCC(=O)NCCC(=O)N(C)C)cc1,-1.276
O=C(CCC1CCCO1)NCc1ccccc1Cn1cncn1 (stereo not drawn),4.302
Cc1ccc(C(=O)N2C[C@@H]3CN(S(C)(=O)=O)CCO[C@@H]3C2)s1,8.668
Cc1cc(NC(=O)N2CCCC2C(C)(C)O)c2ncccc2c1 (stereo not drawn),3.201
CC(C)COc1cncc(N2CCCN(c3ncccn3)CC2)n1,5.409
Cc1ccc(NC(=O)Cn2ncc(SCC(N)=O)c(Cl)c2=O)c(F)c1,1.527
Cc1cnn(CCCNC(=O)NCCC(=O)Nc2ccccc2)c1,7.654
CN(C)c1nc2c(c(N(C)C)n1)CCN(C(=O)CN1C[C@@H]3CC[C@H]1C3)C2,4.797
CCNC(=O)CN(CC)C(=O)c1cccc(Nc2cnn(C)c2)c1,7.066
Cc1ccsc1C(=O)NCCCn1nc2ccccn2c1=O,-2.024
CN(C)c1cc2c(nn1)CCN(C(=O)C1Cc3ccccc3O1)C2 (stereo not drawn),1.786
COc1ccc(CN(C)[C@@H]2COC[C@H]2c2ccc(F)cc2)c(OC)c1,-15.01
Cc1ccc(-n2cc(CN3CCOCC(CN(C)C)C3)cn2)cc1C (stereo not drawn),3.563
COc1cccc(CC2CN(C3CCC3)CCO2)c1 (stereo not drawn),4.061
CCn1c(CN(C)C)nnc1C1CCN(Cc2cccc(F)c2F)CC1,5.187
N#Cc1ccccc1NC(=O)C1CN(C(=O)c2ccc3c(c2)OCO3)C1,0.2554
c1cncc(-c2noc(CN3CCCC3Cn3cccn3)n2)c1 (stereo not drawn),6.005
c1ccc(CO[C@@H]2CN(Cc3cccnc3)[C@@H]3COC[C@@H]32)nc1,1.481
Cc1oc(-c2ccsc2)nc1CC(=O)NCC(C)(C)CN(C)C,0.7614
O=C(Cc1ccccc1F)NCC1CCN(CCc2ccccc2)C1 (stereo not drawn),-9.457
COCC(=O)NC(Cc1cc(N(C)C)nc(C2CC2)n1)c1ccccc1 (stereo not drawn),0.4566
Cc1cc(=O)n2nc(Oc3ccc(Cl)c(C)c3)sc2n1,5.646
Cc1nn(C)cc1-c1ccnc(N(C)Cc2ccoc2)n1,1.353
CCc1nc(CN2CCCN(C(=O)CCCOC)CC2)cs1,6.136
O=C(NCCNC(=O)c1scnc1Cl)c1ccccc1Cl,0.5222
CCSc1cc(C(=O)NC(C)c2cccc(N3CCOC3=O)c2)ccn1 (stereo not drawn),-1.703
CC1CCN(Cn2nc(-c3ccc(F)cc3)oc2=O)CC1,0
CC1(C(=O)N2CCSCC2)CNCCO1 (stereo not drawn),-2.871
NC(=O)C1CCCN1Cc1cccc(NC(=O)c2cc(Cl)cc(Cl)c2)c1 (stereo not drawn),11.57
CS(=O)(=O)c1ccc(Cl)c(NC(=O)NCCC2=CCCCC2)c1,-4.175
CN(C(=O)NCc1ccncc1)C1CCN(c2ccccc2)C1=O (stereo not drawn),-2.128
CC/C=C(\C)CN1CCC(CNC(=O)c2c[nH]c(=O)c(Cl)c2)C1 (stereo not drawn),-5.123
CS(=O)(=O)NCC(=O)N[C@H]1CN(c2cnccn2)C[C@@H]1C1CC1,5
c1ccc(Cc2nnc(CN3CCCCC3Cn3cncn3)o2)cc1 (stereo not drawn),-12.06
O=C1N(Cc2cccc(F)c2F)CCCC1(O)CNCC1CCCCC1 (stereo not drawn),-26.01
CC(C)Nc1cc(N2CCC(n3cc(CCO)nn3)CC2)ncn1,-0.3367
C=C(C)CN1CCC(Nc2nc(C)ns2)CC1,-6.925

Repeated from the top, 8 entries:

| SMILES | Percent Effect |
|---|---|
| `CN(Cc1ccncc1)Cc1cnn(-c2ccc(F)cc2)c1` | -3.617 |
| `O=S(=O)(CCSc1nccn1C1CC1)c1ccccc1` | 0.6274 |
| `CN(C)c1ccc(C(=O)N2CCN(CC(C)(C)O)CC2)nn1` | 10.91 |
| `CC(O)CN1CCC(CNCc2ccc(S(C)(=O)=O)cc2)CC1` (stereo not drawn) | 11.73 |
| `CCCNC(=O)CCC(=O)Nc1ccc(-n2cncn2)c(F)c1` | -4.255 |
| `CC(C)n1nccc1NC(=O)NCCc1nc2ccc(F)cc2n1C` | 3.686 |
| `CC1=Nc2c(c(=O)[nH]n2C2CCCCC2)C(c2cccnc2)S1` (stereo not drawn) | 0.3632 |
| `CC(C)CC(NC(=O)CN(C)c1cnccn1)c1cccs1` (stereo not drawn) | 10.43 |